Measured values reported in article PMC8833133.
Results are given in words; binding and its absence hold for the method and conditions named. Binding seen in cells or lysates may run through a third protein. Some entries that bind do so weakly or less than the wild type.

Target: T1, Sorbin and SH3 domain-containing protein 2 (mouse (endogenous in mouse myocardial tissue)) (UniProt Q3UTJ2)
T1 sequence: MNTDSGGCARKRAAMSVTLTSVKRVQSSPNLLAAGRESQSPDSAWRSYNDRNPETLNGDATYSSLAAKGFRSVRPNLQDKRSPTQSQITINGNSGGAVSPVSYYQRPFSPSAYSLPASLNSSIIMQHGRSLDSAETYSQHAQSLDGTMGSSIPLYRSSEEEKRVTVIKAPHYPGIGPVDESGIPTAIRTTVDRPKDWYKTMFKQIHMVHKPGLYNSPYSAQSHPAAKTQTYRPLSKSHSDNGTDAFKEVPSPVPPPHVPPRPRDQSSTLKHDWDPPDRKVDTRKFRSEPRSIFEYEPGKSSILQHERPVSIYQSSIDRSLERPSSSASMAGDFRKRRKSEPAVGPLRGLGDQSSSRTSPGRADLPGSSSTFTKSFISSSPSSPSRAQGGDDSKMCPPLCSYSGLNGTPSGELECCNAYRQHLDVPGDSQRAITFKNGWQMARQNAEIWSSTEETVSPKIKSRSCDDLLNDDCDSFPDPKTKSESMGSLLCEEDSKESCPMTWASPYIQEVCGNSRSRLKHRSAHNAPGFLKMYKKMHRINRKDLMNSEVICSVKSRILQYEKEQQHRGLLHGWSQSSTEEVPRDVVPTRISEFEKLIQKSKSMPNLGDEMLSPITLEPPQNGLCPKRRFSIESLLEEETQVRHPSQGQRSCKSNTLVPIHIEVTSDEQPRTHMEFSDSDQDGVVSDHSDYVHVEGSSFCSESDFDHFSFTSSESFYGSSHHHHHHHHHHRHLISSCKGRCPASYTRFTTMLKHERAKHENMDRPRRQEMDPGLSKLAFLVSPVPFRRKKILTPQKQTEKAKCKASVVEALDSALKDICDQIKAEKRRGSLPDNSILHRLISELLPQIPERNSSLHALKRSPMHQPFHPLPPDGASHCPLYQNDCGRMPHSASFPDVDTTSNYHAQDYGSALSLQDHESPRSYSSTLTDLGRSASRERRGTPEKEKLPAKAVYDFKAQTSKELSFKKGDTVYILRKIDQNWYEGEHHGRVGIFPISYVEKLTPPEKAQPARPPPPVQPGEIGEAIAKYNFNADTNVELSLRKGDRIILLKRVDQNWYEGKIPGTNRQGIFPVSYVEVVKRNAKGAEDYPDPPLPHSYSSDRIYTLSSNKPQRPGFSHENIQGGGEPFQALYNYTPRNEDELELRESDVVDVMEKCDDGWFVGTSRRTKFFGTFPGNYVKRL
Assay: co-IP; heart tissue lysate; Pierce Classic Magnetic IP/Co-IP Kit; IP with rabbit polyclonal anti-SORBS2 or anti-YWHAQ, overnight; immunoblot with anti-SORBS2 and anti-YWHAQ

B1: YWHAQ (protein, UniProt P68254 1-245)
chain: MEKTELIQKAKLAEQAERYDDMATCMKAVTEQGAELSNEERNLLSVAYKNVVGGRRSAWRVISSIEQKTDTSDKKLQLIKDYREKVESELRSICTTVLELLDKYLIANATNPESKVFYLKMKGDYFRYLAEVACGDDRKQTIENSQGAYQEAFDISKKEMQPTHPIRLGLALNFSVFYYEILNNPELACTLAKTAFDEAIAELDTLNEDSYKDSTLIMQLLRDNLTLWTSDSAGEECDAAEGAEN
- binding: binds
